Reference: the supplement of paper PMC10849652
The list shows a part of the results.

By UniProt entry, the sequences of proteins in these tests, tags left out. Where a name states a change or a piece, a line headed by the entry shows the natural chain unless it says otherwise.
UniProt Q96IQ9: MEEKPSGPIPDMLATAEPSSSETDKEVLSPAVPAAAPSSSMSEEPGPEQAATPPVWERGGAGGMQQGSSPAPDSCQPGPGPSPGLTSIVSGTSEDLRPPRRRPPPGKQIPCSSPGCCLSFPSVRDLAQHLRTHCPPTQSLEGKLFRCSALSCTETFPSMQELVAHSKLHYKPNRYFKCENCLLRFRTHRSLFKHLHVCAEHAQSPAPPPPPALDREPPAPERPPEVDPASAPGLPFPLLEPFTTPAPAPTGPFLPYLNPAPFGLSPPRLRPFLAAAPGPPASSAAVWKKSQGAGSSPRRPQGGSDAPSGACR

Each compound was assayed against ZNF414 isoform 2 (UniProt Q96IQ9) (assay: log2 fold change, soluble protein after heating vs DMSO (PISA); higher = thermal stabilisation; K562 cells, 10 uM, 30 min; active = over 0.2 and 3.5 SD of the protein, either way, in both replicates (recomputed)).
Procedure, shortened: (§1)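 Values are thermal stability changes relative to control samples and are taken from duplicates. They are stated as log2 fold changes. Before quantification by TMTpro 16plex LC-MS/MS with equalised channel sums, K562 cells at 2×10^6 cells/mL were treated with 10 μM compound for 30 min, heated in aliquots for 3 min across 48°C-58°C, pooled, extracted in PBS with 0.5% NP-40 at 4°C, and centrifuged at 21,000xg for 90 min to give the soluble supernatant.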

log2 fold change, inactive:
NC(=O)Nc1cc(-c2cccc(F)c2)sc1C(=O)N[C@H]1CCCNC1 0.096
c1cn2cc(-c3ccc4cn[nH]c4c3)nc(Nc3ccc(N4CCOCC4)cc3)c2n1 [entospletinib] -0.026
CS(=O)(=O)c1ccc(-c2cnc(N)c(C(=O)Nc3ccccc3)n2)cc1 0.015
Cc1ccc(Sc2cncc3sc(C(N)=O)cc23)cc1 -0.18
CS(=O)(=O)CCNCc1ccc(-c2ccc3ncnc(Nc4ccc(OCc5cccc(F)c5)c(Cl)c4)c3c2)o1 [lapatinib] 0.117
CCCS(=O)(=O)Nc1ccc(F)c(C(=O)c2c[nH]c3ncc(Cl)cc23)c1F -0.053
CC[C@@H]1C(=O)N(C)c2cnc(Nc3ccc(C(=O)N[C@H]4CC[C@H](N5CCN(CC6CC6)CC5)CC4)cc3OC)nc2N1C(C)C [volasertib] -0.075
CN(CCOc1ccc(C[C@@H]2SC(=O)NC2=O)cc1)c1ccccn1 (racemic) [rosiglitazone] 0.059
Cn1cncc1[C@@](N)(c1ccc(Cl)cc1)c1ccc2c(c1)c(-c1cccc(Cl)c1)cc(=O)n2C [tipifarnib] -0.081
COc1cc2nc(-c3cc(F)ccc3O)nc(N[C@@H]3CNC[C@H]3C(C)(C)O)c2cc1OC 0.01
CON(C)C(=O)N1N=C(c2cc(F)ccc2F)S[C@@]1(CCCN)c1ccccc1 [filanesib] -0.122
Cc1ccc(NC(=O)c2cccc(C(C)(C)C#N)c2)cc1Nc1ccc2ncn(C)c(=O)c2c1 -0.049
CN1CCN(c2nc(C3=C(c4c[nH]c5ccccc45)C(=O)NC3=O)c3ccccc3n2)CC1 [sotrastaurin] 0.14
CN1CC[C@H](c2c(O)cc(O)c3c(=O)cc(-c4ccccc4Cl)oc23)[C@H](O)C1 [alvocidib] 0.013
Nc1ccccc1NC(=O)c1ccc(CNC(=O)OCc2cccnc2)cc1 [entinostat] 0.116

Each compound was assayed against ZNF428 (UniProt M0QXZ5) in the same assay as above.
Procedure, shortened: as §1

log2 fold change, inactive:
Cc1cccc(CC(=O)N2CCc3c2ccc(-c2cn(C)c4ncnc(N)c24)c3F)n1 -0.026
CCCCN(Cc1ccc(C(=O)NO)cc1)C(=O)Nc1ccccc1 [Nexturastat A] -0.148
O=C1NC(=O)C(c2cnc3ccccn23)=C1c1cn2c3c(cc(F)cc13)CN(C(=O)N1CCCCC1)CC2 -0.051
NC(=O)Nc1cc(-c2cccc(F)c2)sc1C(=O)N[C@H]1CCCNC1 0.112
CC(C)(O)CC(=O)NCCn1ccc2ncnc(Nc3ccc(Oc4cccc(C(F)(F)F)c4)c(Cl)c3)c21 -0.048
c1cn2cc(-c3ccc4cn[nH]c4c3)nc(Nc3ccc(N4CCOCC4)cc3)c2n1 [entospletinib] -0.022
CS(=O)(=O)c1ccc(-c2cnc(N)c(C(=O)Nc3ccccc3)n2)cc1 -0.106
Cc1cc(Nc2cc(N3CCN(C)CC3)nc(Sc3ccc(NC(=O)C4CC4)cc3)n2)n[nH]1 [tozasertib] -0.018
O=C(CCCCCCC(=O)Nc1ccccc1)NO [vorinostat] 0.046
Cc1ccc(Sc2cncc3sc(C(N)=O)cc23)cc1 0.004
CS(=O)(=O)CCNCc1ccc(-c2ccc3ncnc(Nc4ccc(OCc5cccc(F)c5)c(Cl)c4)c3c2)o1 [lapatinib] 0.075
CCCS(=O)(=O)Nc1ccc(F)c(C(=O)c2c[nH]c3ncc(Cl)cc23)c1F -0.029
CC[C@@H]1C(=O)N(C)c2cnc(Nc3ccc(C(=O)N[C@H]4CC[C@H](N5CCN(CC6CC6)CC5)CC4)cc3OC)nc2N1C(C)C [volasertib] 0.057
CN(CCOc1ccc(C[C@@H]2SC(=O)NC2=O)cc1)c1ccccn1 (racemic) [rosiglitazone] 0.019
Cn1cncc1[C@@](N)(c1ccc(Cl)cc1)c1ccc2c(c1)c(-c1cccc(Cl)c1)cc(=O)n2C [tipifarnib] 0.014
CC1=C(C(=O)Nc2cc3cn[nH]c3cc2F)C(c2ccc(C(F)(F)F)cc2)CC(=O)N1 (stereo unspecified) 0.014
